No constants are given. Whether binding was seen depends on the method and setting. Binding seen in cells or lysates may run through a third protein. Some entries that bind do so weakly or less than the wild type. One block for each binder: values may come before it.
Molecular target: GRASP65 (UniProt Q9BQQ3)
Assay: co-IP

The chains behind the UniProt entries cited, without tags or fusion partners.
UniProt Q9BQQ3: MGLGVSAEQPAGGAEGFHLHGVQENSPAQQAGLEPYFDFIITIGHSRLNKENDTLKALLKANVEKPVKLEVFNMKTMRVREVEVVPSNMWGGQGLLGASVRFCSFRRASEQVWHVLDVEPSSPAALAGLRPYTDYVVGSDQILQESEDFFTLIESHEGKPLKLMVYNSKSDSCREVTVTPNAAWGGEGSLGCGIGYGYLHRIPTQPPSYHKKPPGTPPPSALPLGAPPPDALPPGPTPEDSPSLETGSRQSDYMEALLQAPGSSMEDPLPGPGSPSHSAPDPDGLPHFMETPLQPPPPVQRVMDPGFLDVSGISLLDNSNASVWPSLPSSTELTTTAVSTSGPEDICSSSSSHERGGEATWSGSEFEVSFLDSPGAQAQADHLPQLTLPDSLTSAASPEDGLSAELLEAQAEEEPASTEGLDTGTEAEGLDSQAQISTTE

binding: no binding
B1: p23/TMED10 (protein, UniProt P49755 32-219)
chain: ISFHLPINSRKCLREEIHKDLLVTGAYEISDQSGGAGGLRSHLKITDSAGHILYSKEDATKGKFAFTTEDYDMFEVCFESKGTGRIPDQLVILDMKHGVEAKNYEEIAKVEKLKPLEVELRRLEDLSESIVNDFAYMKKREEEMRDTNESTNTRVLYFSIFSMFCLIGLATWQVFYLRRFFKAKKLIE

binding: binds
B2: GM130 (protein, UniProt Q08379 1-1002)
chain: MWPQPRLPPRPAMSEETRQSKLAAAKKKLREYQQRNSPGVPTGAKKKKKIKNGSNPETTTSGGCHSPEDTPKDNAATLQPSDDTVLPGGVPSPGASLTSMAASQNHDADNVPNLMDETKTFSSTESLRQLSQQLNGLVCESATCVNGEGPASSANLKDLESRYQQLAVALDSSYVTNKQLNITIEKLKQQNQEITDQLEEEKKECHQKQGALREQLQVHIQTIGILVSEKAELQTALAHTQHAARQKEGESEDLASRLQYSRRRVGELERALSAVSTQQKKADRYNKELTKERDALRLELYKNTQSNEDLKQEKSELEEKLRVLVTEKAGMQLNLEELQKKLEMTELLLQQFSSRCEAPDANQQLQQAMEERAQLEAHLGQVMESVRQLQMERDKYAENLKGESAMWRQRMQQMSEQVHTLREEKECSMSRVQELETSLAELRNQMAEPPPPEPPAGPSEVEQQLQAEAEHLRKELEGLAGQLQAQVQDNEGLSRLNREQEERLLELERAAELWGEQAEARRQILETMQNDRTTISRALSQNRELKEQLAELQSGFVKLTNENMEITSALQSEQHVKRELGKKLGELQEKLSELKETVELKSQEAQSLQQQRDQYLGHLQQYVAAYQQLTSEKEVLHNQLLLQTQLVDQLQQQEAQGKAVAEMARQELQETQERLEAATQQNQQLRAQLSLMAHPGEGDGLDREEEEDEEEEEEEAVAVPQPMPSIPEDLESREAMVAFFNSAVASAEEEQARLRGQLKEQRVRCRRLAHLLASAQKEPEAAAPAPGTGGDSVCGETHRALQGAMEKLQSRFMELMQEKADLKERVEELEHRCIQLSGETDTIGEYIALYQSQRAVLKERHREKEEYISRLAQDKEEMKVKLLELQELVLRLVGDRNEWHGRFLAAAQNPADEPTSGAPAPQELGAANQQGDLCEVSLAGSVEPAQGEAREGSPRDNPTAQQIMQLLREMQNPRERPGLGSNPCIPFFYRADENDEVKITVI

Source: doi:10.1101/2021.10.05.463252
